Hit rate of the full screen: of about 360,000 compounds, about 10,000 (2.8%) were called active. Inconclusive results, whose numbers are uncertain, are shown with a selection of clear calls. Calls come from the whole dose curve; as a rule, active = well fitted inhibition curve with a large enough effect; inconclusive = small, poorly fitted or top-dose-only effect; inactive = flat fitted curve, though single readings scatter. Where the call is inconclusive, the potency comes from a doubtful curve fit.
These compounds were tested against Serine/threonine-protein kinase PLK1 (Homo sapiens) (UniProt P53350) (assay: qHTS for Inhibitors of PLK1-PDB (polo-like kinase 1 - polo-box domain): Primary Screen). Details: Plk1 PBD binding of FITC phosphopeptide, fluorescence polarization.
% is set by controls: 0 for no effect and ±100 for the full control effect; potency is the fitted concentration of half-maximal effect.
Note: nearly all actives have a fitted effect of over 65% in size.
Throughout, for max response, negative = inhibition: series mostly up to about 57 µM.

Sequences of proteins named here, by UniProt entry; tags and fusion partners are left off.
UniProt P53350, whole entry, looked up: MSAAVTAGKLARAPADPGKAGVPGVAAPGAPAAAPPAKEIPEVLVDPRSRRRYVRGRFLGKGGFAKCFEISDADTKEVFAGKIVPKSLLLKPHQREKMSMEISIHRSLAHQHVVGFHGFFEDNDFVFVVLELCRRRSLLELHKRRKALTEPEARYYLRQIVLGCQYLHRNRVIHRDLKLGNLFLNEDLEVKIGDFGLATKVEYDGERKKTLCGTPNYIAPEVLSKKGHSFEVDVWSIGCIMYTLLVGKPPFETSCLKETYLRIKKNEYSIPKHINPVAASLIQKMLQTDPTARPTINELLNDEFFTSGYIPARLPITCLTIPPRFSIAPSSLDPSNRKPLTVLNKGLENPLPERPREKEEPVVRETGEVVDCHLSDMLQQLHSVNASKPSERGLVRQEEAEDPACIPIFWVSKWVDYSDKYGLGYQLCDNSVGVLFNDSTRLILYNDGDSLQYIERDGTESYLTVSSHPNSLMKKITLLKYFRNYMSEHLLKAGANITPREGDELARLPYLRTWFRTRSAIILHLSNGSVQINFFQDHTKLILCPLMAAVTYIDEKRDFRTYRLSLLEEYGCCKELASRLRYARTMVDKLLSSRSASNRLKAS

SMILES | Potency | max response, negative = inhibition
Cc1cc(C)nc(SCc2cn3c(C)cccc3n2)n1 | inconclusive: 29.9 µM [inhibitor, partial curve] | –
NNc1nc(-c2ccccc2)cc(-c2ccc(Br)cc2)n1 | – | inactive: 3.08%
O=C1C(NS(=O)(=O)c2ccccc2)=C(N2CCN(c3ccc(F)cc3)CC2)C(=O)c2ccccc21 | – | inconclusive: -32.9% [inhibitor]
CCCS(=O)(=O)Nc1ccc(-c2cn3c(n2)SCC3)cc1 | inconclusive: 15 µM [inhibitor, partial curve] | –
CCOC(=O)c1cnn(-c2cc(C)nc3c(-c4ccccc4)c(C)nn23)c1N | inconclusive: 18.9 µM [inhibitor, single point] | –
O=c1[nH]c2cc3c(cc2cc1CN(Cc1cccs1)Cc1nnnn1Cc1ccco1)OCCO3 | inconclusive: 18.9 µM [inhibitor, partial curve] | –
O=C1C(O)CC2c3ccccc3CC3(CCCC3)N12 (centres undefined) | inconclusive: 37.7 µM [inhibitor, single point] | –
O=C(N/N=C/c1ccc([N+](=O)[O-])cc1)c1ccc2nc[nH]c2c1 | inconclusive: 23.8 µM [inhibitor, partial curve] | –
O=C1C2C(C(=O)N1/N=C/c1cc([N+](=O)[O-])c(O)cc1O)C1C=CC2C12CC2 (centres undefined) | inconclusive: 37.7 µM [inhibitor, partial curve, poor fit] | –
CC=CCn1c(SCCCc2ccccc2)nc2c1c(=O)[nH]c(=O)n2C | inconclusive: 29.9 µM [inhibitor, partial curve] | –
Cn1c(=S)c2[nH]c(SCCN)nc2n(C)c1=O | active: 26.7 µM | –
CCOC(=O)C1=C(C)NC(=NC)SC1c1ccccc1 (centres undefined) | active: 21.2 µM | –
O=C(CCl)N1c2ccccc2Sc2ccc3ccccc3c21 | inconclusive: 10.6 µM [inhibitor, partial curve] | –
CCOc1cc(/C=C(\C#N)C(=O)Nc2cccc(C(=O)O)c2)ccc1OCc1ccccc1Cl | active: 21.2 µM | –
Cc1ccccc1-c1nnc2c3ccccc3c(C)nn12 | – | inactive: -0.0596%
CCCNC(=O)NC(=O)CN1C(=O)NC(C)(c2ccc3ccccc3c2)C1=O (centres undefined) | – | inactive: -6.63%
CCCC(NC(=O)Cc1c(C)c2cc3c(C)c(C)oc3c(C)c2oc1=O)C(=O)N[C@@H](Cc1ccccc1)C(=O)O (some centres undefined) | inconclusive: 23.8 µM [inhibitor, single point] | –
O=c1[nH]cc(S(=O)(=O)N2CCN(c3ccccc3F)CC2)c(=O)[nH]1 | inconclusive: 29.9 µM [inhibitor, partial curve] | –
O=C(NCCCn1ccnc1)/C(=C/c1ccccc1)NC(=O)c1ccccc1 | active: 23.8 µM | –

Reference: PubChem BioAssay AID720504 (National Center for Advancing Translational Sciences (NCATS), 2013)
